Test results published in US10829516B2 (London Health Sciences Centre Research Inc., priority 2015, dated 2020).

Test: general procedure: Fmoc solid-phase peptide synthesis; Rink amide MBHA resin (0.52 mmol g-1 loading); HCTU/DIPEA
Conditions: whole synthesis; for isolated yield: scale of the general procedure 0.1 mmol

H-Inp-D-2-Nal-D-2-Nal-1-Nal-Lys(4-FB)-NH2
isolated mass: 9.80 mg | isolated yield: 9%

H-[dA][d2Nal]AW[dF]K-NH2
isolated mass: 19.7 mg | isolated yield: 17%

H-His-D-Trp-Ala-Trp-D-Phe-Lys(4-FB)-NH2
isolated mass: 9.60 mg | isolated yield: 7%

H-Inp-D-2-Nal-D-2-Nal-Phe-Lys-NH2
isolated mass: 6.70 mg | isolated yield: 7%

H-Inp-His-D-2-Nal-D-Phe-Lys(4-FB)-NH2
isolated mass: 6.30 mg | isolated yield: 6%

H-[Aib]H[d2Nal][dF]K-NH2
isolated mass: 20.5 mg | isolated yield: 19%

H-AH[d2Nal]AW[dF]K-NH2
isolated mass: 26.4 mg | isolated yield: 19%

H-Aib-His-D-2-Nal-D-Phe-Lys(4-FB-AEEA)-NH2
isolated mass: 9.2 mg | isolated yield: 8%

H-Aib-His-D-2-Nal-D-Phe-Lys(4-FB)-NH2
isolated mass: 15.4 mg | isolated yield: 15%

H-Inp-His-D-2-Nal-D-2-Nal-Lys(4-FB)-NH2
isolated mass: 11.3 mg | isolated yield: 10%

H-Inp-D-2-Nal-D-2-Nal-Phe-Lys(4-FB)-NH2
isolated mass: 5.90 mg | isolated yield: 6%

H-H[dW]AW[dF]K-NH2
isolated mass: 19.7 mg | isolated yield: 14%

H-Aib-His-D-2-Nal-D-2-Thi-Lys(4-FB)-NH2
isolated mass: 4.20 mg | isolated yield: 4%

H-Inp-D-2-Nal-D-2-Nal-1-Nal-Lys-NH2
isolated mass: 24.9 mg | isolated yield: 23%

H-His-D-Trp-Ala-Trp-D-Phe-Dpr(4-FB)-NH2
isolated mass: 19.8 mg | isolated yield: 14%

H-Inp-His-D-2-Nal-D-2-Thi-Lys(4-FB)-NH2
isolated mass: 14.0 mg | isolated yield: 13%

Non-standard residues stand in square brackets, D forms with d. d2Nal = N[C@H](Cc1ccc2ccccc2c1)C(=O)O; Aib = CC(C)(N)C(=O)O
